Measured values published in paper PMC4894404.
No constants are given. Whether binding was seen depends on the method and setting. In cells and extracts the contact can be indirect. Binding calls can cover weak binding; strength is not graded here.

Amino acid sequences for entries named in this document (tags omitted). A change or cut given only in a name is not applied to a line headed by its entry.
UniProt A0AUJ0: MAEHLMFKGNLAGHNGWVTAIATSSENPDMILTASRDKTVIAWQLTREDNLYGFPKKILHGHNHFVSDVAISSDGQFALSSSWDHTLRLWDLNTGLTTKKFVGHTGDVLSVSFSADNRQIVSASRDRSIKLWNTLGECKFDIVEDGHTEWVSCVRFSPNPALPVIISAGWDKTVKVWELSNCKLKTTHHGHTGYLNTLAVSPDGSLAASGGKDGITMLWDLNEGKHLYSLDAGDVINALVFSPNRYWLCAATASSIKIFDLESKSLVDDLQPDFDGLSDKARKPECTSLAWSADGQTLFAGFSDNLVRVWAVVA
UniProt P0CQ70: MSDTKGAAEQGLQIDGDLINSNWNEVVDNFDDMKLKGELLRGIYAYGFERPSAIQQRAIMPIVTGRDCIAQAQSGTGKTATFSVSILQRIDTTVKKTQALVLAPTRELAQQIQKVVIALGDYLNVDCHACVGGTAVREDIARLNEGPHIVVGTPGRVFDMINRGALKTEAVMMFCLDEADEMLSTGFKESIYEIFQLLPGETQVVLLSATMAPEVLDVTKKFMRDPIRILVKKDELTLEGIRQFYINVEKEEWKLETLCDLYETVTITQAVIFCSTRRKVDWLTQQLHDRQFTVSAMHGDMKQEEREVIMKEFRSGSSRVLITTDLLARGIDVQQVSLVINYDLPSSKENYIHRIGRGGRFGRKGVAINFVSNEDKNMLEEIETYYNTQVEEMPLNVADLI

Target: GST-Gib2 (C. neoformans) (UniProt A0AUJ0)
Test: pull-down; called co-immunoprecipitation by the paper; GST-Gib2 on glutathione-sepharose resin, His-eIF4A added, overnight 4°C in Tris-NaCl buffer (50 mM Tris-HCl pH 7.4, 100 mM NaCl, 1% Triton X-100, 1 mM PMSF); Western blot with anti-His and anti-GST; both purified

His-eIF4A (from UniProt P0CQ70 1-401)
binding: binds
